# In PMC12040169 (PLOS Biology, 2025):
# The list shows a part of the results.
# Tested on: T1, CTL2-GFP (C. trachomatis L2/434/Bu, GFP-expressing)
# T1 construct: L2/434/Bu, GFP-expressing
# Set-up: species or system HeLa; Intracellular C. trachomatis growth in HeLa cells, bulk GFP fluorescence relative to DMSO
# Conditions: bulk GFP, single well; 28.5 h, 10 µM; inhibitor
row,SMILES,% of control remaining [%]
1,O=C(C1CC1)N1CCC(C(=O)N(Cc2ccco2)c2ccccc2)CC1 [CBK298269],146.904
2,CC12CN(S(=O)(=O)c3ccccc3)CC(c3ccccc3)(CN(S(=O)(=O)c3ccccc3)C1)C2=O [CBK268101],114.749
3,CC1CN(C)c2ccccc2CN1C(=O)Cc1cn2ccsc2n1 (stereo not drawn) [CBK306355],153.402
4,CCOc1cccc(N2C(=O)CC(N3CCC(C(N)=O)(N4CCCCC4)CC3)C2=O)c1 (stereo not drawn) [CBK263562],108.987
5,COc1cc(C(=O)N2CCC3(CC2)CC(=O)c2cc(NC(C)=O)ccc2O3)nc2c(OC)cccc12 [CBK170664],84.7397
6,Cc1nonc1OCCN1CCN(c2cc3c(cc2[N+](=O)[O-])n(C)c(=O)n3C)CC1 [CBK267676],123.954
7,CCOC(=O)c1cccc(NC(=O)CSc2nc3cccnc3[nH]2)c1 [CBK269354],98.2348
8,Cc1cccc(-c2cn3ccnc3c(N3CCN(c4ccccn4)CC3)n2)c1 [CBK066478],157.16
9,CSc1nnc(-c2cccc(C)c2)n1CC1CCCCC1 [CBK085418],115.96
10,O=C(O)c1ccc(CSc2nnc(-c3ccccc3)n2Cc2ccccc2)cc1 [CBK265013],102.24
11,CCCC12CN3CC(CCC)(CN(C1)C3c1ccc(O)c(OC)c1)C2=O (stereo not drawn) [CBK265531],100
12,O=C(Nc1cccc2[nH]ccc12)c1ccc2c(c1)OCCO2 [CBK159657],121.141
13,CC(=O)NCc1cccc(-c2cc(OCC3COc4ccccc4O3)cnc2C)c1 (stereo not drawn) [CBK161723A],90.445
14,Cc1ccccc1C(=O)Nc1nc2ccc(S(C)(=O)=O)cc2s1 [CBK287337],123.301
15,CCCN1C[C@H](NC(=O)CC)[C@@H](c2ccc(OC)cc2)C1 [CBK282134],153.152
16,CN(C)S(=O)(=O)c1ccc(Cl)c(C(=O)Nc2cccc([N+](=O)[O-])c2)c1 [CBK265721],204.948
17,CCCc1ccc(C(=O)NCC(C)n2cncn2)o1 (stereo not drawn) [CBK282883],122.866
18,CSCCOc1cncc(N2CCCC2)n1 [CBK115761],100
19,CCCCC(c1nnn[nH]1)n1nnc2ccccc21 (stereo not drawn) [CBK023526],103.28
20,Cn1cc(-c2ccc(C3CCCCN3Cc3ccnc4ccccc34)cn2)cn1 (stereo not drawn) [CBK285672],124.39
21,CCc1nc(CN2CCN(c3ccc4nc(C)nn4n3)CC2)cs1 [CBK306285],180.042
22,CC(C(=O)N1CCC(c2ccncc2)CC1)c1ccccc1 (stereo not drawn) [CBK285484],141.795
23,COCC(=O)N1CCC(c2onc3c2CC(C)CC3)CC1 (stereo not drawn) [CBK284599],143.536
24,Cc1nsc(NCc2ccccc2CN2CCC(O)CC2)c1C#N [CBK304695],122.432
25,COc1ccc(CCOc2nccnc2-c2ccc(OC(F)(F)F)cc2)cc1 [CBK106846],91.6353
26,Cc1cccc(-c2nc(CN3CCOCC3)cs2)c1 [CBK270299],129.479

# Reformatted: results already given.
row | SMILES | % of control remaining [%]
1 | O=C(C1CC1)N1CCC(C(=O)N(Cc2ccco2)c2ccccc2)CC1 [CBK298269] | 146.904
5 | COc1cc(C(=O)N2CCC3(CC2)CC(=O)c2cc(NC(C)=O)ccc2O3)nc2c(OC)cccc12 [CBK170664] | 84.7397
11 | CCCC12CN3CC(CCC)(CN(C1)C3c1ccc(O)c(OC)c1)C2=O (stereo not drawn) [CBK265531] | 100
12 | O=C(Nc1cccc2[nH]ccc12)c1ccc2c(c1)OCCO2 [CBK159657] | 121.141
13 | CC(=O)NCc1cccc(-c2cc(OCC3COc4ccccc4O3)cnc2C)c1 (stereo not drawn) [CBK161723A] | 90.445
14 | Cc1ccccc1C(=O)Nc1nc2ccc(S(C)(=O)=O)cc2s1 [CBK287337] | 123.301
16 | CN(C)S(=O)(=O)c1ccc(Cl)c(C(=O)Nc2cccc([N+](=O)[O-])c2)c1 [CBK265721] | 204.948
18 | CSCCOc1cncc(N2CCCC2)n1 [CBK115761] | 100
20 | Cn1cc(-c2ccc(C3CCCCN3Cc3ccnc4ccccc34)cn2)cn1 (stereo not drawn) [CBK285672] | 124.39
21 | CCc1nc(CN2CCN(c3ccc4nc(C)nn4n3)CC2)cs1 [CBK306285] | 180.042
22 | CC(C(=O)N1CCC(c2ccncc2)CC1)c1ccccc1 (stereo not drawn) [CBK285484] | 141.795
23 | COCC(=O)N1CCC(c2onc3c2CC(C)CC3)CC1 (stereo not drawn) [CBK284599] | 143.536
25 | COc1ccc(CCOc2nccnc2-c2ccc(OC(F)(F)F)cc2)cc1 [CBK106846] | 91.6353
26 | Cc1cccc(-c2nc(CN3CCOCC3)cs2)c1 [CBK270299] | 129.479

# More records

row,SMILES,% of control remaining [%]
1,C=C(C)c1cccc(C(C)(C)NC(=O)N2CCC(C(=O)NC(c3ccc(OC)nc3)c3ccccc3C)CC2)c1 (stereo not drawn) [CBK074871],118.318
2,CN1CC(c2ccccc2)CC2(CCN(CCCn3cnnn3)CC2)C1 (stereo not drawn) [CBK306522],112.594
3,CCn1nnc2c(=O)n(CC(=O)Nc3ccccc3)cnc21 [CBK287828],97.0074
4,COCc1cccc(-c2nccnc2OC(c2ccccc2)c2ccccc2)c1 [CBK106960],83.2579
5,COC(C)(C)C(=O)N1CCCC(c2ccc(Cc3ccc(Cl)cc3)cn2)C1 (stereo not drawn) [CBK285846],115.69
6,COc1ccc(NC(=O)Nc2nn(Cc3c(F)cccc3Cl)cc2Cl)cc1OC [CBK267019],134.439
7,Nc1nc(=O)[nH]c2c1ncn2[C@H]1C[C@@H](O)[C@@H](CO)O1 [CBK201323],147.844
8,CNC(=O)Nc1cccc(S(N)(=O)=O)c1 [CBK023839],118.061
9,O=C(NC1CCCCC1)c1cc(S(=O)(=O)N2CCOCC2)ccc1Cl [CBK261662],100
10,Cc1ccc(C(=O)Nc2ccccc2C(=O)N2CCN(Cc3ccccc3)CC2)cc1 [CBK263560],92.8051
11,CC(C)(C)CCNCCN1CCOCC1 [CBK001895],98.9083
12,N#CC1=C(N)Oc2[nH]nc(-c3cccs3)c2C1c1ccco1 (stereo not drawn) [CBK266088],155.754
13,Cc1cc(Cl)ccc1NC(=O)COC(=O)c1ccccc1I [CBK265638],100
14,CC(C)C1OC(NC2CC(C)(C)NC(C)(C)C2)=NC1=O (stereo not drawn) [CBK070360T],114.332
15,CN1CCC(N(C)C(=O)NCCN2CCOCC2)C1 (stereo not drawn) [CBK156002],109.999
16,Cc1ccc(Cn2nc(NC(=O)c3cc(C)on3)c3ccccc32)cc1 [CBK048215],135.295
17,Cc1ccccc1C(=O)Nc1cccc(NC(=S)NC(=O)c2cccs2)c1 [CBK263895],129.949
18,Cc1cc(C)n(CC(=O)NCCCn2ccnc2C(C)C)c(=O)n1 [CBK307185],148.254
19,Cc1ccc2c(c1)C(=O)CC1(CCC3C(C(=O)N4CCCC4)C31)O2 (stereo not drawn) [CBK284951],145.97
20,Cc1nc2ccc(C(=O)N(C)CCN(C)C)cn2c1N(C)Cc1cccs1 [CBK146083],118.8
21,Cc1cn(C2CC(O)C(CO)O2)c(=O)nc1SCCC#N (stereo not drawn) [CBK201201],132.461
22,CCN(Cc1ccncc1)C(=O)NCc1c(Cl)cccc1Cl [CBK155144],95.8575
23,CC(=O)N1c2ccc(C(O)CN3CCSCC3)cc2CC1C (stereo not drawn) [CBK283143],109.317
24,FC(F)(F)c1ccnc(Sc2ccccn2)n1 [CBK093786],105.322
25,CC(C)C[C@H](NC(=O)N1CC(=O)Nc2ccccc21)C(=O)O [CBK286589],110.382
